Laboratory results reported in publication doi:10.1101/2020.04.16.045708 (bioRxiv, 2020).
Results are given in words; binding and its absence hold for the method and conditions named.

B1: WDR41 (WD40 repeat-containing protein 41), Q9HAD4 1-459 (protein)
chain: MLRWLIGGGREPQGLAEKSPLQTIGEEQTQNPYTELLVLKAHHDIVRFLVQLDDYRFASAGDDGIVVVWNAQTGEKLLELNGHTQKITAIITFPSLESCEEKNQLILTASADRTVIVWDGDTTRQVQRISCFQSTVKCLTVLQRLDVWLSGGNDLCVWNRKLDLLCKTSHLSDTGISALVEIPKNCVVAAVGKELIIFRLVAPTEGSLEWDILEVKRLLDHQDNILSLINVNDLSFVTGSHVGELIIWDALDWTMQAYERNFWDPSPQLDTQQEIKLCQKSNDISIHHFTCDEENVFAAVGRGLYVYSLQMKRVIACQKTAHDSNVLHVARLPNRQLISCSEDGSVRIWELREKQQLAAEPVPTGFFNMWGFGRVSKQASQPVKKQQENATSCSLELIGDLIGHSSSVEMFLYFEDHGLVTCSADHLIILWKNGERESGLRSLRLFQKLEENGDLYLAV
B2: WDR41^ΔC (domain or fragment, UniProt Q9HAD4 1-435)
chain: MLRWLIGGGREPQGLAEKSPLQTIGEEQTQNPYTELLVLKAHHDIVRFLVQLDDYRFASAGDDGIVVVWNAQTGEKLLELNGHTQKITAIITFPSLESCEEKNQLILTASADRTVIVWDGDTTRQVQRISCFQSTVKCLTVLQRLDVWLSGGNDLCVWNRKLDLLCKTSHLSDTGISALVEIPKNCVVAAVGKELIIFRLVAPTEGSLEWDILEVKRLLDHQDNILSLINVNDLSFVTGSHVGELIIWDALDWTMQAYERNFWDPSPQLDTQQEIKLCQKSNDISIHHFTCDEENVFAAVGRGLYVYSLQMKRVIACQKTAHDSNVLHVARLPNRQLISCSEDGSVRIWELREKQQLAAEPVPTGFFNMWGFGRVSKQASQPVKKQQENATSCSLELIGDLIGHSSSVEMFLYFEDHGLVTCSADHLIILWKNGE
B3: WDR41 (WD40 repeat-containing protein 41) (natural protein)
chain: B1 chain

Assays:
Assay in all cases: pull-down
[1] = target: T1, C9ORF72 alone, bait of the pull-down (human), Q96LT7; conditions: remark: other sources report otherwise
T1 chain: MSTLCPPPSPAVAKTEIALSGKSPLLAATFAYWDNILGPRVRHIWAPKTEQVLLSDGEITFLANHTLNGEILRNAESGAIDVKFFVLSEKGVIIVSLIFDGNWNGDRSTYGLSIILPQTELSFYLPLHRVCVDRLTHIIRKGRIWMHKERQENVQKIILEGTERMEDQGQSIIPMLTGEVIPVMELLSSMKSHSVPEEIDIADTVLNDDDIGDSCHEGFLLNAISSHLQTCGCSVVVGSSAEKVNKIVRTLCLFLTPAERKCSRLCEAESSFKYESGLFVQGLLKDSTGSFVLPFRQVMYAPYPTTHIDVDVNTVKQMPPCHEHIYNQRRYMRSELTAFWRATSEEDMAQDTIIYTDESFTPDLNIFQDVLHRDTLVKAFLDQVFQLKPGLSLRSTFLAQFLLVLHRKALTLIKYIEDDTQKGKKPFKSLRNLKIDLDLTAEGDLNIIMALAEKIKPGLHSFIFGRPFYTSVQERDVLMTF

[2] = target: T2, C9ORF72 alone, bait of the pull-down (human) (UniProt Q96LT7)
T2 sequence: T1 chain

[3] = target: T3, SMCR8^Longin alone, bait of the pull-down (human) (UniProt Q8TEV9)
T3 sequence: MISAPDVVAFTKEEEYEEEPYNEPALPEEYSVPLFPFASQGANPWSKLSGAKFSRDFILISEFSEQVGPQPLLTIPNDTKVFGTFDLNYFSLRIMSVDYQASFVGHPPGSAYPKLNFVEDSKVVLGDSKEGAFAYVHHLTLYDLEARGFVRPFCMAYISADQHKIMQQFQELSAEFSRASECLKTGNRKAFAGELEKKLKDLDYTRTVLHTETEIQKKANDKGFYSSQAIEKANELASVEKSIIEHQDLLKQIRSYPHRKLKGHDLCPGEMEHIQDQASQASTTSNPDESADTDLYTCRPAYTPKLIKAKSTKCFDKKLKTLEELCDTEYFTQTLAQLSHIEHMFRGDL

Binder	binding [1]	binding [2]	binding [3]
B1	no binding (tested: 20 μM)	–	–
B2	–	no binding (tested: 20 μM)	no binding (tested: 20 μM)
B3	–	–	no binding (tested: 20 μM)
